The whole screen tested about 53,000 sequences, of which about 3,700 (7%) were called active.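 The calls were made as follows: active = gene knockdowns whose robust z-score for IL-1 alpha signal is at least 2 or at most -2, so actives lie on both sides; inactive = the rest.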 This is one part of the list.
experiment: Components of the Cytosolic LPS Sensing Pathway: Gene Identification via Genome-wide siRNA Screen; conditions: RAW264.7 macrophages, IL-1a HTRF, actives lie on both sides, screened at 100 nM (by protocol), cells primed 5 h with Pam3CSK4 first;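 also: robust z of the log signal after scaling to non-targeting control siRNA wells of the plate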
Outline: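 IL-1a HTRF of supernatants after 24 hour LipidA transfection of Pam3CSK4-primed (5 hours) RAW264.7 cells, 48h post-siRNA transfection (100 nM). Scores: percent of plate negative-control median, then log-based robust z-score.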

| Sequence | z-score |
| --- | --- |
| GGAAACUACUCCAUGGUGATT against Olfr967 | inactive: -0.564 |
| CCUAAACAGCCUUAUCGAUTT against Clca3a1 | inactive: 0.0828 |
| CGUGCUAAACCAAGACUUATT against Lyplal1 | inactive: 1.25 |
| CCCUGCUGGUUGGUAAUCATT against F830005K03Rik | inactive: 0.548 |
| CGUAUUCCAUGGUUUCCUATT against Whrn | inactive: 0.111 |
| GGAGAUUGAACCAAAGCCUTT against Smpdl3b | inactive: 0.153 |
| GGAGUUGUAGAGAAUUUAGTT against Zfp85 | inactive: 1.11 |
| CCGAACAAAGAACUGUUCATT against Slc25a47 | inactive: 0.151 |
| CCUCUGUCUGCUAAUAAGATT against R3hdm4 | inactive: 1.01 |
| GGAAGUGCUCUGCUGUACATT against Eml6 | inactive: 0.655 |
| GGAUUCCAGAUUAAAUGAUTT against Rfc1 | inactive: 1.09 |
| GGAGGUUAGUGACUCAUUUTT against 9230112E08Rik | inactive: -1.3 |
| GGACUUUUACCAGUUCUCCTT against Ece2 | active: -2.43 |
| GGUUGUUUGCUUACGAUGUTT against Ttll12 | inactive: -0.0758 |
| GGUAUGUCUGUAACUCUGGTT against Il15ra | inactive: 0.708 |
| GGACUUCUAUCCACUCACGTT against Helz | inactive: -1.95 |
| CCCUGUCUUUCCUAGGCCATT against Mcat | active: -3.3 |
| GCUGGUUUCUUAUAGGAAGTT against Dnmt3b | inactive: 1.03 |
| CGCCAGGUAGUGAUAUCAATT against Fancm | inactive: 1.81 |
| GCGUGAGCUAAUGUUCACATT against Agpat2 | inactive: -0.255 |
| GGCAACCAUACUUCAUCUATT against Hmces | inactive: -0.0694 |
| GCAUUAAAACUUCCUUUUGTT against Ubl3 | inactive: 0.679 |

Part of the list above, set out differently:
Sequence	z-score
GGAGAUUGAACCAAAGCCUTT against Smpdl3b	inactive: 0.153
GGACUUUUACCAGUUCUCCTT against Ece2	active: -2.43
GGACUUCUAUCCACUCACGTT against Helz	inactive: -1.95

Later entries:

| Sequence | z-score |
| --- | --- |
| GCUGUAAGCAGUCCAAAUATT against Kdelr3 | inactive: 1.43 |
| CCAUCCUCCUACUCGUUAGTT against Vmn1r233 | active: 2.03 |
| CCCAUUUGGAUUCACUAACTT against Tmem132d | inactive: 0.293 |
| GGCUCAGUGAAGGCAAGUUTT against Hspb2 | active: 2.56 |
| GGUGUUUUCUGUGCUGUGATT against Klhdc3 | inactive: -1.55 |
| GGCAGAUCAUUGGAUUCUATT against Tsc22d4 | inactive: 1.64 |
| GGGAUUGAUUUGACUCACATT against Kars | inactive: -0.0112 |
| GGUUAUUUUGGGAAUAUUCTT against Ndufab1 | inactive: -0.651 |
| GGUUAAAGGUGCAUUUAAATT against Olfr1448 | inactive: -0.717 |
| GGGUACAGGACUCAAGAGUTT against 9130230L23Rik | inactive: 0.411 |
| UUGUUAUAGCACUUCCAAATT against Vwa3b | active: 2.12 |
| GGCCUUCCUUUGUUUUUUUTT against Jup | inactive: -0.227 |
| GGAGGUCAUUGUAUGGAACTT against Bpnt2 | inactive: 1.04 |
| GGCUGAAGAACUCCUACAATT against Dennd1c | active: 2.17 |
| GGGCUGUAUUUCUUUACCCTT against Mrgprb2 | inactive: 0.508 |
| GGAGAAAAUUCAUACCCGATT against Pcgf5 | inactive: 1.58 |
| GGAGAGACCAGAAUGGUAUTT against Fbxw21 | inactive: -1.12 |
| GGGAUCUUGGAGAACCAAATT against Slc39a5 | inactive: -0.694 |
| CCACAAGCUAAUACAUGCUTT against Ubac1 | inactive: -1.37 |
| GGAGCCUCACUUCUAUCUUTT against Foxk1 | inactive: -0.464 |
| CCAGGUGUAUAAUAAGAUGTT against Atp8b3 | inactive: 0.271 |
| CGACCACACAGGGAUAUACTT against Sectm1a | inactive: -0.169 |

| Sequence | z-score |
| --- | --- |
| GGAUUCAAAGAAAAUCCUGTT against B3galt2 | inactive: -0.0494 |
| GGGCCAUUUUCGAUGGUAGTT against Hs3st3a1 | inactive: 0.243 |
| GGAACAAAGAGGUUCUAGGTT against Olfr202 | inactive: 0.0754 |
| GGACAGACUACACUUCUAUTT against Msto1 | inactive: 0.818 |
| CCACACUGAGGACUAUAUUTT against Cstf1 | inactive: 1.01 |
| CCGCCAAAGAUUUUAACCCTT against Dennd10 | inactive: 0.186 |
| GCACUGAGUACUGCCUCAUTT against Otop3 | inactive: -0.185 |
| GGGUUCAAAACUAUGGAUATT against Stk26 | inactive: 0.575 |
| GGACCUUGCUAAGAAGUACTT against Nub1 | inactive: -0.603 |
| GGCGAUAGUGUCUAAGAAATT against Cfap298 | inactive: -0.0112 |
| GGCCAAUGUCUUCUUCAAGTT against Arpc3 | inactive: 0.38 |
| CGGUCUGUUCAUAUCUUACTT against Klhl25 | inactive: 1.59 |
| GGAAGAUCUCAGUGAGCAUTT against Gpcpd1 | inactive: 0.69 |
| GGUUGCUAGUUUCUGAAAATT against C130074G19Rik | inactive: -1.14 |
| GGUGAAUAAAGACCGAGGUTT against Anks6 | inactive: -1.58 |
| GGUAGAUUUGGAAUAAGCCTT against Gpbp1l1 | inactive: -0.621 |
| GGCCACUUUACUGUAGCUGTT against Ermard | inactive: 0.49 |
| CCGGGACAUAGAGGAAAUUTT against Cabp1 | inactive: -0.113 |
| CCAUUAGGAUCCCUUAGGGTT against Xkr7 | inactive: -1.54 |
| CCUUUACUUCACUCUUAGCTT against Trim66 | inactive: 0.535 |
| CCUUGUUGCUUUCCUAACCTT against Ifit1bl2 | inactive: -0.52 |
| GCAUACUUAGGAUACACGCTT against A830005F24Rik | inactive: -0.647 |

2 records drawn at random from the list so far, as already listed:

| Sequence | z-score |
| --- | --- |
| GGGAUCUUGGAGAACCAAATT against Slc39a5 | inactive: -0.694 |
| GGUUGCUAGUUUCUGAAAATT against C130074G19Rik | inactive: -1.14 |

(further entries)

| Sequence | z-score |
| --- | --- |
| GCACCAUAUCCUCUGCAUUTT against Slc5a6 | inactive: -0.316 |
| GCUUCUAGAGACAAAAAAUTT against Mapk8ip3 | inactive: -0.514 |
| GGGAACUCAGCUUCACCAATT against Trim47 | inactive: -1.53 |
| GGGACCAUACACUCCAUAUTT against Olfr1507 | inactive: -0.284 |
| CGGUCAUUAAAACUUACAGTT against Hells | active: 2.69 |
| GGCAGCUGAGCAUAAUCCCTT against Tut1 | inactive: -1.22 |
| GGAGGUUAAGAUUCCAGAGTT against Prune1 | inactive: 1.52 |
| CCAGUGCGAUUCAAGAUUATT against Glrx | inactive: -0.769 |
| GCUUUAUUCACUCACUUUCTT against Chsy3 | inactive: 0.814 |
| GGUGAUUUGUGAAAGGGUGTT against Rnf38 | inactive: 0.907 |
| GGCUUUCUUAUUUUCCUGUTT against Smim12 | inactive: -0.744 |
| GCCUGUGGCUUAAACUUCATT against Vat1l | inactive: 0.11 |
| CCGGUUUAACUUCAUCAUGTT against Dcaf4 | inactive: -1.35 |
| GCGGGCCAUAAAGAGACAUTT against Timm17a | inactive: -0.164 |
| GGGCAUUUGUGAAAGAACUTT against Mapk1ip1l | inactive: -0.901 |
| GGAGGUAUACAGUAAGGAGTT against Fbxo32 | inactive: 0.542 |
| GCAAAAUUACCAGCUUACUTT against Tox4 | inactive: -0.269 |
| ACCGGAUCCAUUCACCUACTT against Fxyd1 | inactive: -1.22 |
| GGCCACAAUGGAUCAGAUGTT against Gldn | inactive: 1.53 |
| CCGUAUCAUUUCACUGCUCTT against Abca16 | inactive: 0.653 |
| GGUCCAAUUUUAUAACAGUTT against Dmtf1 | inactive: 0.359 |
| CGAGGUCAAUAUCAUUCCATT against Serpinb11 | inactive: 0.727 |

Nothing new here: entries from further up.

| Sequence | z-score |
| --- | --- |
| GGAGCCUCACUUCUAUCUUTT against Foxk1 | inactive: -0.464 |
| CCAGGUGUAUAAUAAGAUGTT against Atp8b3 | inactive: 0.271 |
| CGACCACACAGGGAUAUACTT against Sectm1a | inactive: -0.169 |

(next part)

| Sequence | z-score |
| --- | --- |
| GCCUUUAGGUGUCAGUCCUTT against Zfp869 | inactive: -0.242 |
| CGUCCAUCAAACGAUCACCTT against Alox5 | inactive: 0.638 |
| CGACCUGUGGGAAGAUAUUTT against Apoa5 | inactive: -0.992 |
| GGCAUCUCUCCAAUAACCUTT against Fbxw2 | inactive: -1.2 |
| GGAUGGAGAGAUAAGAAAATT against Lmntd1 | inactive: -0.572 |
| GGGAAUGUUCUAUAACUCATT against Prep | inactive: 1.34 |
| GGUGGAAGUCUCCAAGACATT against Tatdn1 | inactive: -0.318 |
| GGAUUUAGCCAUGGAUUUCTT against Zfp473 | inactive: -1.17 |
| GGCUGUAACCUCUUCAUCUTT against Celf6 | inactive: 1.38 |
| GGCCAAAGAAGAAAGUGACTT against Opn3 | active: -2.72 |
| GGAAGACAGAAAUGAAGAUTT against Enah | inactive: -0.736 |
| GGUAUCAUGAUCACUGUUUTT against Slc30a8 | inactive: -1.47 |
| GGAGCAUUCUCCAUCUAGCTT against Dennd2d | inactive: -1.41 |
| GGGUUACACAUCAUUUUGGTT against Golph3 | inactive: 1.45 |
| GGCCAUUACCCAUGAGACUTT against Cd63 | inactive: 0.997 |
| GGAACUGGGCAUCAAGUACTT against Hacl1 | inactive: -0.801 |
| GGGAACAGCCUUCACAAUGTT against Pomt2 | inactive: -0.524 |
| GGAUCUUUCUUUUCUCUCUTT against Rab6b | inactive: 0.32 |
